Reference: patent US10272133B2, “Compositions and methods for treating and preventing hyperlipidemia, fatty liver, atherosclerosis and other disorders associated with metabolic syndrome” (VANDERBILT UNIVERSITY, priority 2011, dated 2019)
At least one peptide structure holds a part that was inferred or is arguable (an end, a ring closure or a residue). Bridge positions count the residues as written; N and C are the ends. Peptide text beside a SMILES is read from it.

By UniProt entry, the sequences of proteins in these tests, tags left out. Where a name states a change or a piece, a line headed by the entry shows the natural chain unless it says otherwise.
UniProt Q14974, whole entry: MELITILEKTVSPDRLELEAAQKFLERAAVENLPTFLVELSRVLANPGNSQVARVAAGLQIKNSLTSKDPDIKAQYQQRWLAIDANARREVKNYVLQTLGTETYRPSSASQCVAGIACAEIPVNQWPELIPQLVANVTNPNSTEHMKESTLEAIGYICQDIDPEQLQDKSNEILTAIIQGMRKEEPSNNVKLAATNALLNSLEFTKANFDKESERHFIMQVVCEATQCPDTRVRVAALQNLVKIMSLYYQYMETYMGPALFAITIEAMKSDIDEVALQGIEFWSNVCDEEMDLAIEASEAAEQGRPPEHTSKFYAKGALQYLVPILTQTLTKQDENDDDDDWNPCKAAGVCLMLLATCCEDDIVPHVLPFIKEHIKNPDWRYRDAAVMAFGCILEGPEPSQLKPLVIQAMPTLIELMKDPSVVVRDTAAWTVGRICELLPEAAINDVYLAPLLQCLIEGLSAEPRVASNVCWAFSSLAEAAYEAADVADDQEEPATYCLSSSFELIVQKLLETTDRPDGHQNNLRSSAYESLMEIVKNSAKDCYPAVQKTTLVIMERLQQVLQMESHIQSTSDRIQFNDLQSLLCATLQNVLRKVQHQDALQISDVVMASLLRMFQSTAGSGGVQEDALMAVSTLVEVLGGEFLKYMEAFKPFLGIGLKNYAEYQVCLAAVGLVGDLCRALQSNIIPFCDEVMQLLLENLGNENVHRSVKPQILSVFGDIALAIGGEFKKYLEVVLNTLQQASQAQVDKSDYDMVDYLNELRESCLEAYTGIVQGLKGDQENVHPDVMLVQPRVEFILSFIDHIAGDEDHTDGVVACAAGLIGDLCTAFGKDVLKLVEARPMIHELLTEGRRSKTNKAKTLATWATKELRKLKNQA
UniProt P04406: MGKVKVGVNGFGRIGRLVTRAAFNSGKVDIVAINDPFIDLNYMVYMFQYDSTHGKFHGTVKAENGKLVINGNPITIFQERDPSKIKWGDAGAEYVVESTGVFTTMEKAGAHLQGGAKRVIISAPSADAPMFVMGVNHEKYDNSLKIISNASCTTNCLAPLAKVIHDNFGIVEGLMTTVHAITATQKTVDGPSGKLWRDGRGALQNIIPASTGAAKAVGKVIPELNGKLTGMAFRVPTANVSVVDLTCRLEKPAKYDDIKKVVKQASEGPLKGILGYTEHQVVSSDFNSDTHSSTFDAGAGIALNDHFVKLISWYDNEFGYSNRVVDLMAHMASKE

Experiments:
macrophages = test: Macrophage distribution and migration in ldlr-/- mice; assay type: in vivo, mouse
[1] = test system: nuclear transport of SREBP1 and SREBP2; test: Nuclear transport of SREBP1 and SREBP2 in sterol-depleted HepG2 cells; assay type: cell-based, human
[2] = test system: ldlr−/− mice fed a Western diet; test: Hyperlipidemia, fatty liver, hyperglycemia and weight gain in ldlr-/- mice fed a Western diet; assay type: in vivo, mouse
Method: Cell-penetrating peptide cSN50.1 (2986 Da) and other peptides listed in Table 1 were synthesized and prepared as previously described (Liu, D., et al., (2009) Mol Ther 17, 796-802). Biotinylated NTM peptides and their constituent modules were prepared in the same manner, with biotin added to the amino terminus at the last step of synthesis. When necessary, a 5-7 hydrophilic amino acid tag was added to peptide modules to facilitate solubility. For i.p. administration, 200 μl aliquots containing 0.4 or 0.7 mg of cSN50.1 in saline was injected at 8 h or 12 h intervals. Alternatively, 10 mg cSN50.1 in 100 μl sterile H2O was administered subcutaneously from ALZET Osmotic Pumps (1007D) placed aseptically in interscapular areas. A bolus of 0.7 mg cSN50.1 in 100 μl saline was administered i.p. at weekly pump changes to assure steady NTM bioavailability. Dosage schedules were developed based on previous experimental protocols and half-life studies. Control mice received sterile saline in the same volumes as NTM. Importins pull-down assay. Ten nmols of biotinylated NTM peptides or their constituent modules depicted in Table 1 (SN50, cSN50.1, N50, cN50.1, SSHR-1, SSHR-2) were incubated overnight at 4° C. with 1.5 mg of whole cell extract from unstimulated human Jurkat T cells or serum-starved human HepG2 cells lysed in binding buffer (10 mM HEPES at pH 7.9, 150 mM NaCl, 10 mM KCl, 2.5 mM MgCl2, 1 mM EGTA, 1 mM DTT, 0.1% NP-40, 1% protease inhibitor cocktail). Lysate was cleared by centrifugation (16,000×g for 30 min at 4° C.) and transferred to a fresh tube containing high capacity Neutravidin beads (Thermo Scientific). After 4 h, beads were separated from lysate/peptide mixture by centrifugation (30 s at 1,000×g) and washed 3 times with binding buffer and 2 times with PBS. Beads were boiled for 10 min in SDS loading buffer, and protein content was analyzed by immunoblotting with a panel of anti-importins alpha and beta antibodies and anti-GAPDH (Abcam) as a cellular protein control.
Six week old B6.129S7-Ldlrtm1Her/J female mice were purchased from Jackson Laboratories. Mice were fed a Western diet containing 21% milk fat and 0.15% cholesterol and maintained according to the guidelines for use and care of laboratory animals approved by the Vanderbilt University Institutional Animal Care and Use Committee. Mice and food were weighed at the beginning and end of each experiment. Blood chemistries were determined in fasting mouse plasma using an automated chemistry analyzer in the Vanderbilt Clinical Research Center. Total cholesterol and triglycerides in liver and cholesterol in feces were analyzed by standard methods in the Lipid Core Laboratory. Complete blood cell counts were performed in the Clinical Hematology Laboratory and flow cytometry analysis of lymphocytes subsets was. Cryostat sections of livers were stained with Oil-red-O. Atherosclerotic lesions and macrophages were analyzed in the aortic root by staining with Oil-red-O and MOMA-2, respectively. Average lesion area was determined using Imaging System KS300 2.0.

importin beta = importin beta (Homo sapiens, UniProt Q14974); test: Importins pull-down assay, HepG2 cell extract; assay type: binding; parameters: endogenous in cells; details: HepG2 cell extracts
Method: (§1) Cell-penetrating peptide cSN50.1 (2986 Da) and other peptides listed in Table 1 were synthesized and prepared as previously described (Liu, D., et al., (2009) Mol Ther 17, 796-802). Biotinylated NTM peptides and their constituent modules were prepared in the same manner, with biotin added to the amino terminus at the last step of synthesis. When necessary, a 5-7 hydrophilic amino acid tag was added to peptide modules to facilitate solubility. For i.p. administration, 200 μl aliquots containing 0.4 or 0.7 mg of cSN50.1 in saline was injected at 8 h or 12 h intervals. Alternatively, 10 mg cSN50.1 in 100 μl sterile H2O was administered subcutaneously from ALZET Osmotic Pumps (1007D) placed aseptically in interscapular areas. A bolus of 0.7 mg cSN50.1 in 100 μl saline was administered i.p. at weekly pump changes to assure steady NTM bioavailability. Dosage schedules were developed based on previous experimental protocols and half-life studies. Control mice received sterile saline in the same volumes as NTM. Importins pull-down assay. […] Beads were boiled for 10 min in SDS loading buffer, and protein content was analyzed by immunoblotting with a panel of anti-importins alpha and beta antibodies and anti-GAPDH (Abcam) as a cellular protein control. […]

GAPDH = GAPDH (Homo sapiens, UniProt P04406); test: Importins pull-down assay, HepG2 cell extract, control protein; assay type: binding; parameters: endogenous in cells; host or cells: human hepatoma HepG2 cells, starved overnight in 1% FBS, whole-cell extract; details: HepG2 cell extracts
Method: as §1

NFκB RelA = test: Phosphorylated NFκB RelA in liver of Western diet-fed ldlr-/- mice; assay type: in vivo, mouse; details: 8 weeks, vs saline
[3] = test system: SREBP1, SREBP2 and their target genes in liver; test: Liver SREBPs and target gene expression in ldlr-/- mice fed a Western diet; assay type: in vivo, mouse
[4] = test system: ldlr−/− mice fed a Western diet; test: Atherosclerosis, aortic root Oil-Red-O, Western diet-fed ldlr-/- mice; assay type: in vivo, mouse
[5] = test system: nuclear translocation of ChREBP; test: Glucose-induced nuclear transport of ChREBP in HepG2 cells; assay type: cell-based, human; details: 30 μM

CSCC[C@@H]1NC(=O)[C@H](CC(C)C)NC(=O)[C@H](CCCCN)NC(=O)[C@H](CCC(N)=O)NC(=O)[C@H](CCCNC(=N)N)NC(=O)[C@H](CCCCN)NC(=O)[C@H](CCCNC(=N)N)NC(=O)[C@H](CCC(N)=O)NC(=O)[C@H](C(C)C)NC(=O)[C@@H](NC(=O)[C@@H]2CCCN2C(=O)[C@H](C)NC(=O)[C@H](CC(C)C)NC(=O)[C@H](CC(C)C)NC(=O)[C@H](C)NC(=O)[C@H](CC(C)C)NC(=O)[C@H](CC(C)C)NC(=O)[C@@H](NC(=O)[C@H](C)NC(=O)[C@@H]2CCCN2C(=O)[C@H](CC(C)C)NC(=O)[C@H](CC(C)C)NC(=O)[C@H](C)NC(=O)[C@@H](NC(=O)[C@H](C)NC(=O)[C@H](C)N)C(C)C)C(C)C)CSSC[C@@H](C(=O)O)NC(=O)[C@@H]2CCCN2C1=O [cSN50.1] (H-AAVALLPAVLLALLAPCVQRKRQKLMPC-OH; disulfide 17-28; N-terminus and C-terminus assumed)
macrophages populating the atherosclerotic lesion (MOMA-2) (macrophages; 4-week treatment): many of the macrophages failed to populate the atherosclerotic lesion | macrophage migration into the peritoneal cavity (macrophages; i.p. injections of thioglycolate): decreased macrophage migration | precursor forms pSREBP1 and pSREBP2 ([1]; HepG2, 2 h time point, vs control): remained unchanged | processing of precursor forms of SREBPs to nuclear (mature) forms ([1]; HepG2, cytosolic fraction): unaffected | further reduction of nSREBP1 in the nucleus ([1]; gradual sterol depletion, 30 μM vs 10 μM): did not further reduce | concentration giving maximum reduction of the nuclear pool of nSREBP1 ([1]; gradual sterol depletion, delipidized FBS, 24 h): 10 µM | effect on nuclear translocation of SREBP1 ([1]; rapid sterol depletion with HPCD): concentration-dependent | nuclear accumulation of nSREBP1 and nSREBP2 ([1]; sterol-depleted HepG2 cells, 2 h treatment): reducing nuclear accumulation | elevated blood glucose levels ([2]; 8-week treatment): normalized | increase of intestinal disposal of cholesterol (fecal cholesterol) ([2]; 8 weeks): 35% | liver alanine and aspartate transaminases (ALT and AST) in plasma ([2]; 8 weeks): reduced | reduction of cholesterol accumulation in the liver ([2]; 8 weeks): 45% | reduction of triglycerides accumulation in the liver ([2]; 8 weeks): 40% | proatherogenic LDL and VLDL cholesterol fractions ([2]; FPLC, 8 weeks): decrease | overall fat content in the liver ([2]; Oil-red-O, 8 weeks): dramatically reduced | mean plasma cholesterol level lower by ([2]; eight weeks of Western diet, vs control, p<0.005): 40% | plasma triglycerides ([2]; eight weeks, control mice doubled their levels): remained at a steady level | plasma cholesterol and triglyceride levels ([2]; four weeks of treatment, vs control groups): significantly reduced | weight gain ([2]; vs control group): gained less weight | interaction with importin beta (importin beta): interacted | interaction with control protein GAPDH (GAPDH): not with the control protein GAPDH | phosphorylated form of NFκB RelA in cytosolic and nuclear fractions of liver cells (NFκB RelA): reduced | liver transcripts for SREBP1 (srebf1) and SREBP2 (srebf2) ([3]; 4 and 8 weeks of treatment): progressively reduced | liver mRNA for HMG-CoA reductase (hmgcr) ([3]; 4 weeks p<0.05, 8 weeks p<0.0005): progressive reduction | liver transcripts of ATP citrate lyase (acly) and fatty acid synthase-1 (fasn1) ([3]; 8 weeks of treatment): significantly reduced | liver transcripts of ABCG5 (abcg5) and ABCG8 (abcg8) ([3]; mouse, in vivo): not reduced | NPC1L1 protein ([3]; p<0.005): significant NTM-induced reduction | precursor and nuclear forms of SREBP1 and SREBP2 proteins in liver ([3]; vs saline, p<0.05 and p<0.005): reduced | reduction in atherosclerotic lesions ([4]; 0.7 mg/mouse i.p. twice daily, 8 weeks, vs saline, p<0.05): 63% | protection from atherosclerosis ([4]; lower dose 0.4 mg): not protected | development of early lesions ([4]; subcutaneous osmotic pumps changed weekly, 4 weeks): significantly suppressed | reduction of atherosclerotic lesions ([4]; treatment in the first four weeks of the Western diet protocol, p<0.05): approximately 50% | reduction of atherosclerotic lesions ([4]; treatment in the last four weeks of the Western diet protocol): approximately 30% | nuclear translocation of ChREBP [5]: attenuated nuclear translocation

CSCC[C@@H]1NC(=O)[C@H](CC(C)C)NC(=O)[C@H](CCCCN)NC(=O)[C@H](CCC(N)=O)NC(=O)[C@H](CCCNC(=N)N)NC(=O)[C@H](CCCCN)NC(=O)[C@H](CCCNC(=N)N)NC(=O)[C@H](CCC(N)=O)NC(=O)[C@H](C(C)C)NC(=O)[C@H](Cc2ccc(O)cc2)NC(=O)[C@@H](NC(=O)[C@@H]2CCCN2C(=O)[C@H](C)NC(=O)[C@H](CC(C)C)NC(=O)[C@H](CC(C)C)NC(=O)[C@H](C)NC(=O)[C@H](CC(C)C)NC(=O)[C@H](CC(C)C)NC(=O)[C@@H](NC(=O)[C@H](C)NC(=O)[C@@H]2CCCN2C(=O)[C@H](CC(C)C)NC(=O)[C@H](CC(C)C)NC(=O)[C@H](C)NC(=O)[C@@H](NC(=O)[C@H](C)NC(=O)[C@H](C)N)C(C)C)C(C)C)CSSC[C@@H](C(=O)O)NC(=O)[C@@H]2CCCN2C1=O [cSN50] (H-AAVALLPAVLLALLAPCYVQRKRQKLMPC-OH; disulfide 17-29; N-terminus and C-terminus assumed)
protection from atherosclerosis ([4]; 0.4 mg/mouse three times daily, 4 weeks): not protected | atherosclerotic lesion size vs saline ([4]; 0.7 mg/mouse three times daily i.p., 4 weeks): significant reduction
